Data from PubChem BioAssay AID2685 (National Center for Advancing Translational Sciences (NCATS), 2010).
Some of the results follow. Further columns of the screen follow, without active or inactive calls. Compounds called inactive in the main read-out are mostly missing here. The note in brackets gives the kind of curve behind each potency; many fits are weak.

Assay: qHTS Assay for Lipid Storage Modulators in Drosophila S3 Cells;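 on cell number change: cells counted by Cell Tracker Red CMTPX staining in the red channel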
Settings: BODIPY lipid droplet fluorescence, 18-24 h; for cell number change: measured here: cell count max response, cells fed with added oleic acid
Outline: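 Drosophila S3 cells loaded with oleic acid (400 uM, as added) and compounds at several concentrations; lipid droplets imaged by 488-nm laser-scanning cytometry, 500–530 nm intensity and object ratio to cell channel. Percent activity normalized to 20 uM Triacsin C.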

[1] = measured here: cell number channel AC50, cells fed with added oleic acid
[2] = measured here: lipid fluorescence (Fed channel) AC50, cells fed with added oleic acid

| SMILES | cell number change [%] | AC50 [1] | AC50 [2] |
| --- | --- | --- | --- |
| CC(C)NCCCCOc1ccccc1-c1ccccc1 | -5.93 | 0.092 µM [rising, full curve, poor fit] |  |
| O=C(CCCCC(=O)Nc1ccccc1Cl)Nc1ccccc1Cl | 17.5 |  | 32.6 µM [rising, partial curve, poor fit] |
| CCOC(=O)/C(=C/c1ccc(OC)cc1)NC(=O)c1ccco1 | -25.1 | 2.31 µM [falling, full curve, poor fit] |  |
| O=C(CN1CCN(Cc2ccccc2)CC1)N/N=C/C=C/c1ccco1 | 20 |  | 4.11 µM [rising, single point] |
| CSc1ccccc1OCc1cc(C(=O)N2CCC[C@H]2C(N)=O)no1 | 10.7 |  | 29.1 µM [falling, single point] |
| CN(C)NC1=CC(=[N+]2CCCC2)CC(C)(C)C1 | 0.146 |  | 0.206 µM [falling, full curve] |
| COc1ccc(C)cc1NS(=O)(=O)c1ccc2c(c1)N(C)CCO2 |  |  | 18.4 µM [falling, partial curve] |
| O=C(Cn1nnc(-c2ccccc2)n1)Nc1cccc(S(=O)(=O)N2CCCC2)c1 | 70.4 | 14.6 µM [rising, partial curve] |  |
| CC(C)C(=O)Nc1cccc(C(=O)Nc2nccs2)c1 | 3.57 |  | 0.731 µM [rising, full curve, poor fit] |
| CN(C)C(=O)c1c2c(nc3ccccc13)-c1ccccc1CC2 | -16 |  | 0.366 µM [falling, full curve, poor fit] |
| Cc1c(O)ccc2c(CC(=O)N[C@@H](Cc3c[nH]c4ccccc34)C(=O)O)cc(=O)oc12 | -0.901 |  |  |
| CC(Oc1cc2oc(=O)c3c(c2cc1Cl)CCC3)C(=O)NC1CC(C)(C)NC(C)(C)C1 (configuration not stated) | 19.5 |  | 20.6 µM [rising, partial curve] |
| c1ccc(CCc2ccccc2-c2nc(-c3cccnc3)no2)cc1 |  | 1.64 µM [rising, partial curve, poor fit] | 0.411 µM [rising, full curve] |
| Cc1cccc(Cn2ccc(N)n2)c1 | 22.3 |  |  |
| O=C(O)c1ccc(COc2ccccc2/C=C2\NC(=O)N(Cc3ccccc3F)C2=O)cc1 | -19.9 |  | 0.082 µM [falling, full curve, poor fit] |
| COC(=O)c1ccccc1NC(=O)CNc1ccc(F)c(S(=O)(=O)N2CCOCC2)c1 |  |  | 1.3 µM [falling, full curve] |
| O=[N+]([O-])c1ccccc1/C=C/c1ccc2ccccc2n1 | -1.75 |  | 4.61 µM [falling, single point] |
| Cc1cccc(C(C(=O)NCc2ccc(F)cc2)N(C(=O)c2csnn2)C2CC2)c1 (configuration not stated) | 14.2 |  | 11.6 µM [rising, single point] |
| O=C(Nc1ccc2c(c1)OCO2)C1CC1 | -5.66 |  | 0.517 µM [rising, partial curve, poor fit] |
| COc1ccccc1C(=O)COC(=O)c1nc(Cl)ccc1Cl | 31.7 | 0.058 µM [rising, full curve, poor fit] |  |

Pulled one by one from the entries so far:

| SMILES | cell number change [%] | AC50 [1] | AC50 [2] |
| --- | --- | --- | --- |
| c1ccc(CCc2ccccc2-c2nc(-c3cccnc3)no2)cc1 |  | 1.64 µM [rising, partial curve, poor fit] | 0.411 µM [rising, full curve] |
| CC(Oc1cc2oc(=O)c3c(c2cc1Cl)CCC3)C(=O)NC1CC(C)(C)NC(C)(C)C1 (configuration not stated) | 19.5 |  | 20.6 µM [rising, partial curve] |

The listing continues:

| SMILES | cell number change [%] | AC50 [1] | AC50 [2] |
| --- | --- | --- | --- |
| Cc1ccc(NC(=O)CSc2nnc(C)c(=O)n2N)cc1 | -28.4 | 4.11 µM [falling, full curve, poor fit] | 3.66 µM [falling, full curve] |
| O=C(NC(=S)Nc1ccc(N2CCOCC2)cc1)c1cccc(Cl)c1Cl | 2.59 |  | 0.103 µM [rising, full curve, poor fit] |
| COC(=O)c1ccc(CSc2nnc3ccccn23)o1 | 1.56 |  |  |
| Cc1cccc(C(=O)NC2CC3CCCC(C2)N3S(=O)(=O)c2ccccc2)c1 (configuration not stated) | 85.2 | 1.64 µM [rising, full curve] |  |
| CC(C)NC(=O)Cn1c(=O)cnc2ccccc21 | -2.36 |  | 0.103 µM [falling, full curve, poor fit] |
| CCN(CC)c1ccc(/C=C(\C#N)C(=O)c2ccc(Br)cc2)cc1 |  |  | 29.1 µM [falling, single point] |
| COc1cccc(C(=O)NCCS(=O)(=O)N(C)C2CCCCC2)c1 | -2.51 |  | 29.1 µM [falling, single point] |
| CC(C)CCNc1nc(N)c([N+](=O)[O-])c(N2CCCCCC2)n1 | 5.41 | 0.92 µM [rising, full curve, poor fit] |  |
| c1cc(-c2nc3cc(Cc4ccc5oc(-c6ccncc6)nc5c4)ccc3o2)ccn1 | 9.92 |  | 2.91 µM [rising, partial curve, poor fit] |
| COCCNC(=O)c1ccc(CSc2nc3ccccc3s2)cc1 | -32.7 | 35.5 µM [falling, single point] |  |
| Cc1c(S(=O)(=O)N2CCCC2)c(=O)n(C)c(=O)n1C | -55 | 13 µM [falling, partial curve, poor fit] | 25.9 µM [falling, partial curve] |
| Cc1ccc([N+](=O)[O-])cc1N=Cc1ccc(Br)s1 | -14.2 | 5.8 µM [falling, partial curve] | 0.0206 µM [falling, full curve, poor fit] |
| COc1ccc(NC(=O)C(Cc2cc(C)cc(C)c2)C(C)C(=O)O)cc1 (configuration not stated) | 43.2 | 29.1 µM [rising, single point] |  |
| CC(=O)C1=C(O)C(=O)N(CCCO)C1c1ccccc1 (configuration not stated) | -5.34 |  | 1.46 µM [falling, partial curve] |
| O=C1CSC(c2ccc(F)cc2)N1c1nc2ccccc2s1 (configuration not stated) | 23.4 |  | 11.6 µM [rising, partial curve] |
| CC(=O)Nc1ccc(S(=O)(=O)N(C)CC(=O)N/N=C/c2cccs2)cc1 | -17.9 |  |  |
| CCOC(=O)c1c(C)noc1-c1ccco1 | -1.45 | 0.116 µM [falling, full curve, poor fit] |  |
| COc1cc2c(cc1OC)CN(S(=O)(=O)c1cccc(F)c1)CC2 | -22.2 |  | 29.1 µM [rising, single point] |
| CCC(CC)C(=O)Nc1cccc(-c2nc3ccccc3o2)c1 | -32 | 29.1 µM [falling, single point] |  |
| COc1ccc(S(=O)(=O)N(CC(=O)N/N=C/c2cccs2)c2cc(C)cc(C)c2)cc1OC | 95.7 | 1.3 µM [rising, full curve] | 0.92 µM [rising, partial curve] |
